Source: the supplement of paper PMC10849652
Some of the results follow.

Amino acid sequences for entries named in this document (tags omitted). A change or cut given only in a name is not applied to a line headed by its entry.
UniProt Q9HB90, whole entry, looked up: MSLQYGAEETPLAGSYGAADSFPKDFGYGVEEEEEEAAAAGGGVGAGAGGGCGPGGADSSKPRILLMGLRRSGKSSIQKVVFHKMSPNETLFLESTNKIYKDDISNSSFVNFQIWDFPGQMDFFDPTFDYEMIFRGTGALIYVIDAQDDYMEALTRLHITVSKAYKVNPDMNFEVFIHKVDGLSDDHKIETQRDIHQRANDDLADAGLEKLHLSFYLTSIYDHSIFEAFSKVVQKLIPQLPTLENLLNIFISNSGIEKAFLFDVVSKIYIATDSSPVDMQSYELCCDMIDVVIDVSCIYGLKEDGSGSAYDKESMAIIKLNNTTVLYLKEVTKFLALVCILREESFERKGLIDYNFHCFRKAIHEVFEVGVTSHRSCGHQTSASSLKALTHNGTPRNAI
UniProt Q15050: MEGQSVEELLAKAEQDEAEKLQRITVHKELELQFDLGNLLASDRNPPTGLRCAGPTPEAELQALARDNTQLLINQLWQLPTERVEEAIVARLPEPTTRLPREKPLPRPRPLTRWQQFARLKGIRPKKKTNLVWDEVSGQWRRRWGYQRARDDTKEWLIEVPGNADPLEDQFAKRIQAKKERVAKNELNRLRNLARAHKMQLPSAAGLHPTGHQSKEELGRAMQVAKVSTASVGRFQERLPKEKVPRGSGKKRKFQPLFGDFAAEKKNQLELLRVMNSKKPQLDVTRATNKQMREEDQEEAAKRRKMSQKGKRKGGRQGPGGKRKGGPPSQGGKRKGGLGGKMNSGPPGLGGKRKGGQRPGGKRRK
UniProt Q9Y224: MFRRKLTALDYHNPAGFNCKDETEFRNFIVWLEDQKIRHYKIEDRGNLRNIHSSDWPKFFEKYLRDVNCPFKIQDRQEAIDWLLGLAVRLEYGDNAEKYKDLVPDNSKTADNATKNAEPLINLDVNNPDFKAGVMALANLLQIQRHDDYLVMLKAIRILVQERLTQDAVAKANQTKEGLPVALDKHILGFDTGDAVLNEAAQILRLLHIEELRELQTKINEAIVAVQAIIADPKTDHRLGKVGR
UniProt P04843: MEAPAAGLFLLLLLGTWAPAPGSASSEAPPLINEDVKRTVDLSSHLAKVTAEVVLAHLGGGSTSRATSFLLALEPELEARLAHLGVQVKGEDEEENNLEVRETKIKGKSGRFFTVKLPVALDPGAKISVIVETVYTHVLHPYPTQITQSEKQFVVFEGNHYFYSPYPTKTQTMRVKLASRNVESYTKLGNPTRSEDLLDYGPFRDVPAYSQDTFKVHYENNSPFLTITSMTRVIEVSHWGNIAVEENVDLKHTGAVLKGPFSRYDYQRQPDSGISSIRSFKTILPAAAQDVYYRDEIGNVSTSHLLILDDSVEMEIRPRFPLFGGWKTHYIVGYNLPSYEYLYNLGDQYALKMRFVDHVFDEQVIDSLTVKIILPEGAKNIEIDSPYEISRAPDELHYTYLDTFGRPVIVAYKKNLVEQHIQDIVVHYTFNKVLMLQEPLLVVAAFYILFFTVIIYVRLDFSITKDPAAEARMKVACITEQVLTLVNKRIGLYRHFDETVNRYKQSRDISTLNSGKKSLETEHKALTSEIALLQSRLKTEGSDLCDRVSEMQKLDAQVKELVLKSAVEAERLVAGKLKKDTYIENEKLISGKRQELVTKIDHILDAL
UniProt Q9NQC3: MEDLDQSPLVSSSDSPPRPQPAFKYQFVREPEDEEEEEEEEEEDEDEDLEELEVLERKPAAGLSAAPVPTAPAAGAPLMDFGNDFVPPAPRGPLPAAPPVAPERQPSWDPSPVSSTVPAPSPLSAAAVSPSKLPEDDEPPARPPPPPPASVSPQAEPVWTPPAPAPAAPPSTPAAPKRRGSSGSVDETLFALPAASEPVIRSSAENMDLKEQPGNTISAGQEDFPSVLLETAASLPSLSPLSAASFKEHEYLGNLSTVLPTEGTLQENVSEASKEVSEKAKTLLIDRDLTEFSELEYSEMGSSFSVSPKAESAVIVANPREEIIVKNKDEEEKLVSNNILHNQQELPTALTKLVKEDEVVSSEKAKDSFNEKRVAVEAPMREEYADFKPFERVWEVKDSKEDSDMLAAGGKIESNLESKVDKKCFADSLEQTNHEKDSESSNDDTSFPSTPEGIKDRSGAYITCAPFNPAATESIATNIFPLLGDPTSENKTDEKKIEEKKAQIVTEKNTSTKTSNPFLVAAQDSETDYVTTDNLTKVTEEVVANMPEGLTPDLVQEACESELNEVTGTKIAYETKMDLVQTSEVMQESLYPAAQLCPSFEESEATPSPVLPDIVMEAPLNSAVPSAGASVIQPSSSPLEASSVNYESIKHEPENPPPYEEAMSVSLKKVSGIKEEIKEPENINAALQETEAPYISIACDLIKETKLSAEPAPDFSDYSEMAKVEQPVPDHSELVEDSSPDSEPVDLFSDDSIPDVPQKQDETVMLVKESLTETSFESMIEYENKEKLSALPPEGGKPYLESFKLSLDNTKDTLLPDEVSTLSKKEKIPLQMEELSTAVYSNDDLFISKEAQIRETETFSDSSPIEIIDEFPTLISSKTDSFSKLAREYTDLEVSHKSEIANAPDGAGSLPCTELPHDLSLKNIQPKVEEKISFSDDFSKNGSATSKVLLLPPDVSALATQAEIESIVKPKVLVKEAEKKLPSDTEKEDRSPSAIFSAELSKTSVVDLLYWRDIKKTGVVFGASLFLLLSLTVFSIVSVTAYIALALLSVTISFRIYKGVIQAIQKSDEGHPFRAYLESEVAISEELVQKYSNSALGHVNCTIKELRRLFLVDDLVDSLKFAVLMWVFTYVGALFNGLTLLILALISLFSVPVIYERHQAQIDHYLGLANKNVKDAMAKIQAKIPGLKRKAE

Key:
Assay in all cases: log2 fold change, soluble protein after heating vs DMSO (PISA); higher = thermal stabilisation; K562 lysate, 10 uM; active = over 0.2 and 3.5 SD of the protein, either way, in both replicates (recomputed)
[1] = compound: CN1CC[C@H](c2c(O)cc(O)c3c(=O)cc(-c4ccccc4Cl)oc23)[C@H](O)C1 [alvocidib]
Method in brief: (§1)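 Log-two fold change in thermal stability relative to solvent controls is reported from duplicates. For each sample, crude K562 extract from dounce-homogenised pellets in PBS pH 7.4 with 1 mM MgCl2, at 1 mg/mL protein, was treated with 10 μM compound for 30 min. Aliquots heated for 3 min across 48°C-58°C were pooled, brought to 0.5% NP-40 at 4°C and cleared at 21,000xg for 90 min. The supernatant was quantified by TMTpro 16plex LC-MS/MS with channel sums equalised.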

[2] = compound: CN1CCc2c(c3ccccc3n2Cc2ccc(C(=O)NO)cc2)C1 [Tubastatin A]
Method in brief: as §1

[3] = compound: CNC(=O)C1=CC=CC=C1NC2=NC(=NC=C2Cl)NC3=C(C=C(C=C3)N4CCOCC4)OC
Method in brief: as §1

[4] = compound: CNC(=O)c1ccc(Nc2ncc(C(F)(F)F)c(NCc3nccnc3N(C)S(C)(=O)=O)n2)cc1 [defactinib]
Method in brief: as §1

[5] = compound: CNc1nc(-c2ccc3c(N)n[nH]c3c2)cc(N2C[C@@H](C(=O)NC3CCCCC3)CC[C@H]2C)n1
Method in brief: as §1

[6] = compound: COC(=O)N[C@@H](C)CNc1nccc(-c2cn(C(C)C)nc2-c2cc(Cl)cc(NS(C)(=O)=O)c2F)n1 [encorafenib]
Method in brief: as §1

[7] = compound: COC(=O)[C@H](CCSC)NC(=O)C1=C(C=C(C=C1)NC[C@H](CS)N)C2=CC=CC=C2
Method in brief: as §1

[8] = compound: COc1cc(Nc2ncc3c(n2)-c2ccc(Cl)cc2C(c2c(F)cccc2OC)=NC3)ccc1C(=O)O [alisertib]
Method in brief: as §1

[9] = compound: COc1cc2nc(-c3cc(F)ccc3O)nc(N[C@@H]3CNC[C@H]3C(C)(C)O)c2cc1OC
Method in brief: as §1

[10] = compound: COc1cc2ncnc(Nc3ccc(F)c(Cl)c3)c2cc1OCCCN1CCOCC1 [gefitinib]
Method in brief: as §1

[11] = compound: CS(=O)(=O)CCNCc1ccc(-c2ccc3ncnc(Nc4ccc(OCc5cccc(F)c5)c(Cl)c4)c3c2)o1 [lapatinib]
Method in brief: as §1

[12] = compound: CS(=O)(=O)N1CCN(Cc2cc3nc(-c4cccc5[nH]ncc45)nc(N4CCOCC4)c3s2)CC1 [pictilisib]
Method in brief: as §1

[13] = compound: C[C@@H](Oc1cc(-c2cnn(C3CCNCC3)c2)cnc1N)c1c(Cl)ccc(F)c1Cl [crizotinib]
Method in brief: as §1

[14] = compound: C[C@H](C1=CC=C(C=C1)C(=O)NC2=C3C=CNC3=NC=C2)N
Method in brief: as §1

[15] = compound: C[C@H](Nc1ncnc2nc[nH]c12)c1cc2cccc(Cl)c2c(=O)n1-c1ccccc1 [duvelisib]
Method in brief: as §1

[16] = compound: Cc1cc(Nc2cc(CN3CCOCC3)c3nc(C)c(Cc4ccc(Cl)cc4F)n3n2)n[nH]1 [gandotinib]
Method in brief: as §1

[17] = compound: Cc1cc(Nc2cc(N3CCN(C)CC3)nc(Sc3ccc(NC(=O)C4CC4)cc3)n2)n[nH]1 [tozasertib]
Method in brief: as §1

[18] = compound: Cc1ccc(-n2nc(C(C)(C)C)cc2NC(=O)Nc2ccc(OCCN3CCOCC3)c3ccccc23)cc1 [doramapimod]
Method in brief: as §1

[19] = compound: Cc1ccc(NC(=O)c2ccc(CN3CC[C@H](N(C)C)C3)c(C(F)(F)F)c2)cc1Nc1nccc(-c2cncnc2)n1 [bafetinib]
Method in brief: as §1

[20] = compound: Cc1cccc(CC(=O)N2CCc3c2ccc(-c2cn(C)c4ncnc(N)c24)c3F)n1
Method in brief: as §1

Target | log2 fold change [1] | log2 fold change [2] | log2 fold change [3] | log2 fold change [4] | log2 fold change [5] | log2 fold change [6] | log2 fold change [7] | log2 fold change [8] | log2 fold change [9] | log2 fold change [10] | log2 fold change [11] | log2 fold change [12] | log2 fold change [13] | log2 fold change [14] | log2 fold change [15] | log2 fold change [16] | log2 fold change [17] | log2 fold change [18] | log2 fold change [19] | log2 fold change [20]
RTF1 (UniProt Q92541) | inactive: 0.018 | inactive: 0.014 | inactive: 0 | inactive: -0.012 | inactive: -0.052 | inactive: 0.04 | inactive: -0.023 | inactive: 0.009 | inactive: -0.004 | inactive: 0.042 | inactive: 0.02 | inactive: 0.039 | inactive: 0.025 | inactive: 0.001 | inactive: -0.004 | inactive: -0.012 | inactive: 0.061 | inactive: 0.032 | inactive: -0.012 | inactive: -0.01
RRAGC (UniProt Q9HB90) | inactive: 0.003 | inactive: 0.068 | inactive: 0.017 | inactive: -0.014 | inactive: -0.02 | inactive: -0.004 | inactive: -0.028 | inactive: 0.02 | inactive: 0.016 | inactive: 0.028 | inactive: -0.02 | inactive: -0.032 | inactive: -0.021 | inactive: -0.01 | inactive: -0.006 | inactive: 0.052 | inactive: -0.043 | inactive: -0.016 | inactive: -0.05 | inactive: 0.003
RPS25 (UniProt P62851) | inactive: 0.02 | inactive: 0.034 | inactive: -0.003 | inactive: -0.022 | inactive: 0.034 | inactive: -0.039 | inactive: 0.027 | inactive: -0.001 | inactive: 0.007 | inactive: -0.007 | inactive: -0.043 | inactive: 0 | inactive: -0.007 | inactive: -0.027 | inactive: -0.013 | inactive: 0.019 | inactive: 0.004 | inactive: 0.003 | inactive: 0.017 | inactive: 0.004
RPL37A (UniProt P61513) | inactive: 0.159 | inactive: 0.024 | inactive: 0.022 | inactive: -0.045 | inactive: 0.161 | inactive: 0.004 | inactive: 0.021 | inactive: -0.006 | inactive: 0.004 | inactive: -0.064 | inactive: -0.012 | inactive: -0.01 | inactive: -0.011 | active: 0.312 | inactive: -0.088 | inactive: -0.131 | inactive: -0.087 | inactive: -0.044 | inactive: 0.02 | inactive: -0.2
RRS1 (UniProt Q15050) | inactive: -0.013 | inactive: -0.06 | inactive: -0.008 | inactive: -0.047 | inactive: 0.092 | inactive: 0.039 | inactive: -0.005 | inactive: -0.031 | inactive: -0.012 | inactive: 0.002 | inactive: -0.016 | inactive: 0 | inactive: -0.091 | inactive: -0.051 | inactive: 0.012 | inactive: -0.016 | inactive: 0.044 | inactive: -0.001 | inactive: 0.011 | inactive: 0.132
RSL1D1 (UniProt O76021) | inactive: 0.007 | inactive: -0.008 | inactive: 0.007 | inactive: 0.024 | inactive: -0.016 | inactive: 0.022 | inactive: -0.047 | inactive: -0.011 | inactive: -0.014 | inactive: -0.01 | inactive: 0.004 | inactive: 0.01 | inactive: 0.022 | inactive: 0.03 | inactive: -0.01 | inactive: -0.056 | inactive: 0.008 | inactive: -0.049 | inactive: 0.014 | inactive: -0.005
RPS7 (UniProt P62081) | inactive: 0.099 | inactive: 0.021 | inactive: -0.014 | inactive: 0.023 | inactive: 0 | inactive: -0.028 | inactive: 0.028 | inactive: -0.039 | inactive: -0.011 | inactive: -0.026 | inactive: 0.025 | inactive: 0.057 | inactive: 0.055 | inactive: 0.207 | inactive: 0.019 | inactive: -0.089 | inactive: -0.027 | inactive: -0.089 | inactive: 0.092 | inactive: -0.116
RTRAF (UniProt Q9Y224) | inactive: -0.005 | inactive: -0.061 | inactive: -0.006 | inactive: -0.004 | inactive: -0.032 | inactive: -0.01 | inactive: -0.033 | inactive: 0.033 | inactive: 0.006 | inactive: -0.002 | inactive: -0.006 | inactive: -0.095 | inactive: 0.022 | inactive: -0.037 | inactive: 0.026 | inactive: -0.017 | inactive: 0.047 | inactive: 0.017 | inactive: 0.152 | inactive: 0.017
RPS28 (UniProt P62857) | inactive: -0.022 | inactive: 0.032 | inactive: -0.02 | inactive: -0.024 | inactive: -0.027 | inactive: 0.003 | inactive: -0.026 | inactive: -0.043 | inactive: 0.004 | inactive: 0.008 | inactive: 0.001 | inactive: 0.082 | inactive: 0.006 | inactive: -0.054 | inactive: 0.024 | inactive: 0.015 | inactive: 0.082 | inactive: 0.013 | inactive: 0.18 | inactive: 0.039
RPL38 (UniProt P63173) | inactive: 0.008 | inactive: 0.016 | inactive: -0.029 | inactive: -0.011 | inactive: 0.037 | inactive: -0.013 | inactive: 0.044 | inactive: 0.045 | inactive: 0.002 | inactive: 0.02 | inactive: 0.006 | inactive: 0.014 | inactive: -0.006 | inactive: 0.042 | inactive: -0.02 | inactive: -0.058 | inactive: -0.011 | inactive: -0.092 | inactive: 0 | inactive: -0.017
RPS8 (UniProt P62241) | inactive: 0.004 | inactive: 0.035 | inactive: -0.038 | inactive: 0.024 | inactive: 0.006 | inactive: -0.018 | inactive: 0.061 | inactive: 0.019 | inactive: 0.001 | inactive: -0.07 | inactive: -0.011 | inactive: 0 | inactive: 0.041 | inactive: -0.002 | inactive: 0.026 | inactive: -0.004 | inactive: -0.013 | inactive: -0.047 | inactive: 0.039 | inactive: -0.016
RPN1 (UniProt P04843) | inactive: -0.025 | inactive: 0.031 | inactive: -0.027 | inactive: 0.014 | inactive: 0.026 | inactive: 0.014 | inactive: -0.093 | inactive: 0.03 | inactive: -0.046 | inactive: -0.009 | inactive: -0.04 | inactive: -0.011 | inactive: -0.015 | inactive: -0.041 | inactive: -0.004 | inactive: -0.006 | inactive: 0.003 | inactive: -0.008 | inactive: -0.04 | inactive: 0.055
RTN4 (UniProt Q9NQC3) | inactive: -0.052 | inactive: 0.022 | inactive: 0.011 | inactive: -0.012 | inactive: 0.062 | inactive: 0.033 | inactive: -0.014 | inactive: 0.007 | inactive: 0.018 | inactive: 0.05 | inactive: -0.052 | inactive: -0.018 | inactive: -0.054 | inactive: -0.162 | inactive: 0 | inactive: 0.091 | inactive: -0.033 | inactive: 0.003 | inactive: -0.016 | inactive: 0.06
RPS14 (UniProt P62263) | inactive: -0.017 | inactive: 0.043 | inactive: -0.027 | inactive: -0.026 | inactive: 0.024 | inactive: -0.015 | inactive: 0.026 | inactive: 0.01 | inactive: -0.014 | inactive: -0.041 | inactive: 0.013 | inactive: 0.03 | inactive: -0.011 | inactive: -0.082 | inactive: -0.018 | inactive: 0.048 | inactive: -0.027 | inactive: -0.015 | inactive: -0.046 | inactive: 0.05
RTN4 isoform 5 (UniProt Q9NQC3) | inactive: 0.005 | inactive: 0.046 | inactive: -0.068 | inactive: 0.031 | inactive: -0.046 | inactive: 0.134 | inactive: -0.04 | inactive: 0.021 | inactive: -0.005 | inactive: 0.014 | inactive: 0.029 | inactive: 0.001 | inactive: -0.117 | inactive: 0.044 | inactive: 0.011 | inactive: 0.176 | inactive: -0.025 | inactive: 0.009 | inactive: -0.067 | inactive: 0.039
RPS23 (UniProt P62266) | inactive: 0.026 | inactive: 0.034 | inactive: -0.011 | inactive: -0.018 | inactive: 0.062 | inactive: -0.028 | inactive: 0.065 | inactive: 0.01 | inactive: -0.01 | inactive: -0.061 | inactive: -0.009 | inactive: 0 | inactive: 0.007 | inactive: 0.097 | inactive: 0.018 | inactive: -0.035 | inactive: -0.03 | inactive: -0.011 | inactive: -0.006 | inactive: -0.041

2 records picked at random from those above, as already listed:
Target | log2 fold change [1] | log2 fold change [2] | log2 fold change [3] | log2 fold change [4] | log2 fold change [5] | log2 fold change [6] | log2 fold change [7] | log2 fold change [8] | log2 fold change [9] | log2 fold change [10] | log2 fold change [11] | log2 fold change [12] | log2 fold change [13] | log2 fold change [14] | log2 fold change [15] | log2 fold change [16] | log2 fold change [17] | log2 fold change [18] | log2 fold change [19] | log2 fold change [20]
RPS7 (UniProt P62081) | inactive: 0.099 | inactive: 0.021 | inactive: -0.014 | inactive: 0.023 | inactive: 0 | inactive: -0.028 | inactive: 0.028 | inactive: -0.039 | inactive: -0.011 | inactive: -0.026 | inactive: 0.025 | inactive: 0.057 | inactive: 0.055 | inactive: 0.207 | inactive: 0.019 | inactive: -0.089 | inactive: -0.027 | inactive: -0.089 | inactive: 0.092 | inactive: -0.116
RTN4 (UniProt Q9NQC3) | inactive: -0.052 | inactive: 0.022 | inactive: 0.011 | inactive: -0.012 | inactive: 0.062 | inactive: 0.033 | inactive: -0.014 | inactive: 0.007 | inactive: 0.018 | inactive: 0.05 | inactive: -0.052 | inactive: -0.018 | inactive: -0.054 | inactive: -0.162 | inactive: 0 | inactive: 0.091 | inactive: -0.033 | inactive: 0.003 | inactive: -0.016 | inactive: 0.06
